Results taken from PMC7916142.
No constants are given. Whether binding was seen depends on the method and setting. Binding seen in cells or lysates may run through a third protein. Some results given as binding are weak or reduced against the parent protein; the word gives no strength.

Amino acid sequences for entries named in this document (tags omitted). Residues count along the entry.
UniProt Q924X6, residues 29-996: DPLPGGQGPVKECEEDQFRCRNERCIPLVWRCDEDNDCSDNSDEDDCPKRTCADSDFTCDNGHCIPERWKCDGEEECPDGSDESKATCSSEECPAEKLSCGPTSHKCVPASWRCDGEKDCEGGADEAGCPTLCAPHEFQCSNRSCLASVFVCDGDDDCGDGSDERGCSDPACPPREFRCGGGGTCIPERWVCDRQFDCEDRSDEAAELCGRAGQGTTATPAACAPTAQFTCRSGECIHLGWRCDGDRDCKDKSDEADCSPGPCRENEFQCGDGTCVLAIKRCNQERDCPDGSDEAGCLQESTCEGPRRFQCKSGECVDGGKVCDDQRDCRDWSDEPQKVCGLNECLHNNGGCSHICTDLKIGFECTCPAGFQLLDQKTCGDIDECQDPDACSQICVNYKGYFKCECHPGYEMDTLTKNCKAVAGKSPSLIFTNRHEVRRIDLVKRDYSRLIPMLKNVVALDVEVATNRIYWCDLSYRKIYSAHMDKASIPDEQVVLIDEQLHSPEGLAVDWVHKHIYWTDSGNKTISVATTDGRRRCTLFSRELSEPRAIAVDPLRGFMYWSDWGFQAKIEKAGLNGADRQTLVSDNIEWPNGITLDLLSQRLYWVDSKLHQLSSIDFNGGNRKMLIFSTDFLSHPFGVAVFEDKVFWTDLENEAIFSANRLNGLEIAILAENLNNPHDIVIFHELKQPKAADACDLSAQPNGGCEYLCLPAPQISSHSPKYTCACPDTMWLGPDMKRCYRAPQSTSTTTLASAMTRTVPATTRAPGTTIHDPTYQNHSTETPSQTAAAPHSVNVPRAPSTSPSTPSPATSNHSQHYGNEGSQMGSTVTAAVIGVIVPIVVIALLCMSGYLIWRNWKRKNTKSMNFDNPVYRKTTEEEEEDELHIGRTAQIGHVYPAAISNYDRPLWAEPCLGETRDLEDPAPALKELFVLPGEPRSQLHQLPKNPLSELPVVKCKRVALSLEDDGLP

Tests used:
[1] = target: apolipoprotein E receptor 2 (ApoER2), expressed in HEK293 cells (UniProt Q924X6); test: co-IP; extracts of transiently transfected HEK293 cells (NP-40 lysis buffer: 150 mM NaCl, 1% NP-40, 10% glycerol, 20 mM Tris pH 7.4); 400-500 ug protein, 1 h at 4 °C with anti-EGFR or anti-ApoER2 (Ab 186), then Protein A Sepharose; Dab1 detected by blot (Ab D4); unrelated IgG as control
[2] = target: epidermal growth factor receptor (EGFR), expressed in HEK293 cells (UniProt P00533); test: as above

binding [1]: binds
binding [2]: binds
B1: Disabled 1 (Dab1), Dab1_555, expressed in HEK293 cells (protein, UniProt P97318-2 1-555)
chain: MSTETELQVAVKTSAKKDSRKKGQDRSEATLIKRFKGEGVRYKAKLIGIDEVSAARGDKLCQDSMMKLKGVVAGARSKGEHKQKIFLTISFGGIKIFDEKTGALQHHHAVHEISYIAKDITDHRAFGYVCGKEGNHRFVAIKTAQAAEPVILDLRDLFQLIYELKQREELEKKAQKDKQCEQAVYQTILEEDVEDPVYQYIVFEAGHEPIRDPETEENIYQVPTSQKKEGVYDVPKSQPVSAVTQLELFGDMSTPPDITSPPTPATPGDAFLPSSSQTLPGSADVFGSMSFGTAAVPSGYVAMGAVLPSFWGQQPLVQQQIAMGAQPPVAQVIPGAQPIAWGQPGLFPATQQAWPTVAGQFPPAAFMPTQTVMPLAAAMFQGPLTPLATVPGTNDSARSSPQSDKPRQKMGKESFKDFQMVQPPPVPSRKPDQPSLTCTSEAFSSYFNKVGVAQDTDDCDDFDISQLNLTPVTSTTPSTNSPPTPAPRQSSPSKSSASHVSDPTADDIFEEGFESPSKSEEQEAPDGSQASSTSDPFGEPSGEPSGDNISPQDGS
